The other results are listed elsewhere or left out.
Legend:
Assay in all cases: log2 fold change, soluble protein after heating vs DMSO (PISA); higher = thermal stabilisation; K562 lysate, 10 uM; active = over 0.2 and 3.5 SD of the protein, either way, in both replicates (recomputed)
duvelisib = compound: C[C@H](Nc1ncnc2nc[nH]c12)c1cc2cccc(Cl)c2c(=O)n1-c1ccccc1 [duvelisib]
Outline: (§1)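 Thermal stability, expressed as log-two fold change relative to solvent controls, is given from duplicates. Crude K562 extract in PBS pH 7.4 with 1 mM MgCl2, at 1 mg/mL protein, was treated with 10 μM compound for 30 min and heated in aliquots for 3 min across 48°C-58°C. After pooling, adjustment to 0.5% NP-40 at 4°C and centrifugation at 21,000xg for 90 min, supernatant protein was measured by TMTpro 16plex LC-MS/MS with channel sums equalised.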

Chains of the proteins cited; added tags and fusions are not shown. Lines headed by an entry give the natural chain unless they say otherwise; changes in a name come on top.
UniProt Q7LFL8: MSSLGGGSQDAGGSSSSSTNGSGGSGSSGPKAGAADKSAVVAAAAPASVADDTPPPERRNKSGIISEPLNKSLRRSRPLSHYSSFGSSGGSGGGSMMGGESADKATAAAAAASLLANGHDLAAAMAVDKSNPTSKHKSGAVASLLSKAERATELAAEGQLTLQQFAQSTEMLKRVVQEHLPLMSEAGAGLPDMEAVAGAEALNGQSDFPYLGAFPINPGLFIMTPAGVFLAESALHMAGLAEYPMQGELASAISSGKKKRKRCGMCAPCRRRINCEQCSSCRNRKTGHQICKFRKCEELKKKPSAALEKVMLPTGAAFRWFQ
UniProt Q6GPI1, whole entry, looked up: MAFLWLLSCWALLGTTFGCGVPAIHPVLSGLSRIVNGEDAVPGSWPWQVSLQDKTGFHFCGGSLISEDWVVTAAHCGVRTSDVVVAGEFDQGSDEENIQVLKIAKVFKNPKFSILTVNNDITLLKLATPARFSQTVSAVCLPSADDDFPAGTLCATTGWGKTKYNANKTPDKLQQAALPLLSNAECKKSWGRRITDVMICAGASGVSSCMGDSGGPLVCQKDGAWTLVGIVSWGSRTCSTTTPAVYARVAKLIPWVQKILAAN
UniProt O95196: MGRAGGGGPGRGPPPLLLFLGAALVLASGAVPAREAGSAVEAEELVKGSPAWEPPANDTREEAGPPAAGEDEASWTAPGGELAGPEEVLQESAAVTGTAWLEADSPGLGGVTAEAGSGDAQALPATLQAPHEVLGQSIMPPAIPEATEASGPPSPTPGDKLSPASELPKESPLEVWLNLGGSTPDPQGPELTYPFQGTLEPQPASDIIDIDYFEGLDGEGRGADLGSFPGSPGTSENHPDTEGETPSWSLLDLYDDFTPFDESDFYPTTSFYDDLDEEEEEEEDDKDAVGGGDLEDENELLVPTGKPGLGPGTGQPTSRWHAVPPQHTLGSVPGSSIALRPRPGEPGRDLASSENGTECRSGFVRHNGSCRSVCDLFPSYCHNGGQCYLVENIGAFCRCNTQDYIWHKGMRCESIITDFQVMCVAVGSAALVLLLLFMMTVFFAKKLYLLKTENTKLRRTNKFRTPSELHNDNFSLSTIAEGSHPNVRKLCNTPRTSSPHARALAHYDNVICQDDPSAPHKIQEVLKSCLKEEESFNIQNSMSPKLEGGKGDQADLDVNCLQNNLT
UniProt Q9NSA3: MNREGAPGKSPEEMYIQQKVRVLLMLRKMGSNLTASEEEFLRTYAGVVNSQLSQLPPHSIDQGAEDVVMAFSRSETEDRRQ
UniProt P01037: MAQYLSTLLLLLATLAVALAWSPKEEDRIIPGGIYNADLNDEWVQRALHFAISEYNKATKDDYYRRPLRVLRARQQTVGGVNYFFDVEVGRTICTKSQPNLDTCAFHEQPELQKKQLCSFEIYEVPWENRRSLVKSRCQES
UniProt P09603: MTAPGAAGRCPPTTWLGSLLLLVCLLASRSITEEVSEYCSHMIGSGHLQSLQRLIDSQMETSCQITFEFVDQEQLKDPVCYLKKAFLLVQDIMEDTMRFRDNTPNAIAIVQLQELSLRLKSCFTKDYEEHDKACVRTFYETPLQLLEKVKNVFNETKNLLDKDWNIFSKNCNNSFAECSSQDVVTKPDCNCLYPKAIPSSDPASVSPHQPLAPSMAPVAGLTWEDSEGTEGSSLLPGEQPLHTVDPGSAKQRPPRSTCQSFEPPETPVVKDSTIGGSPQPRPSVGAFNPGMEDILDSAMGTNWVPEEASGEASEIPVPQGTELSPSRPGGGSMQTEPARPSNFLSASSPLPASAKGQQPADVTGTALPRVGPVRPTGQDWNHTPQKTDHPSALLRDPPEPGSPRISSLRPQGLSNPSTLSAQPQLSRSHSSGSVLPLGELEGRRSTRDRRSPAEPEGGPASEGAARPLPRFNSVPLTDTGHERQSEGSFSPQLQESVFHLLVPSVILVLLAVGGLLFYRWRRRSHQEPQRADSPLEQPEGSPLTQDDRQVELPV
UniProt P54108: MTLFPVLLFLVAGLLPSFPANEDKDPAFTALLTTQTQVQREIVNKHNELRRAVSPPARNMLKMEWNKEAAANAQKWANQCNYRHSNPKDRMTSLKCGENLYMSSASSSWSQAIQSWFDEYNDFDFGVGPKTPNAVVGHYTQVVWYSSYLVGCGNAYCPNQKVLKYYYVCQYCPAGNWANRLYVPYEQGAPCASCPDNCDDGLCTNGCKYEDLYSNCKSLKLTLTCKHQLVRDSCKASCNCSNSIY
UniProt Q96RY5: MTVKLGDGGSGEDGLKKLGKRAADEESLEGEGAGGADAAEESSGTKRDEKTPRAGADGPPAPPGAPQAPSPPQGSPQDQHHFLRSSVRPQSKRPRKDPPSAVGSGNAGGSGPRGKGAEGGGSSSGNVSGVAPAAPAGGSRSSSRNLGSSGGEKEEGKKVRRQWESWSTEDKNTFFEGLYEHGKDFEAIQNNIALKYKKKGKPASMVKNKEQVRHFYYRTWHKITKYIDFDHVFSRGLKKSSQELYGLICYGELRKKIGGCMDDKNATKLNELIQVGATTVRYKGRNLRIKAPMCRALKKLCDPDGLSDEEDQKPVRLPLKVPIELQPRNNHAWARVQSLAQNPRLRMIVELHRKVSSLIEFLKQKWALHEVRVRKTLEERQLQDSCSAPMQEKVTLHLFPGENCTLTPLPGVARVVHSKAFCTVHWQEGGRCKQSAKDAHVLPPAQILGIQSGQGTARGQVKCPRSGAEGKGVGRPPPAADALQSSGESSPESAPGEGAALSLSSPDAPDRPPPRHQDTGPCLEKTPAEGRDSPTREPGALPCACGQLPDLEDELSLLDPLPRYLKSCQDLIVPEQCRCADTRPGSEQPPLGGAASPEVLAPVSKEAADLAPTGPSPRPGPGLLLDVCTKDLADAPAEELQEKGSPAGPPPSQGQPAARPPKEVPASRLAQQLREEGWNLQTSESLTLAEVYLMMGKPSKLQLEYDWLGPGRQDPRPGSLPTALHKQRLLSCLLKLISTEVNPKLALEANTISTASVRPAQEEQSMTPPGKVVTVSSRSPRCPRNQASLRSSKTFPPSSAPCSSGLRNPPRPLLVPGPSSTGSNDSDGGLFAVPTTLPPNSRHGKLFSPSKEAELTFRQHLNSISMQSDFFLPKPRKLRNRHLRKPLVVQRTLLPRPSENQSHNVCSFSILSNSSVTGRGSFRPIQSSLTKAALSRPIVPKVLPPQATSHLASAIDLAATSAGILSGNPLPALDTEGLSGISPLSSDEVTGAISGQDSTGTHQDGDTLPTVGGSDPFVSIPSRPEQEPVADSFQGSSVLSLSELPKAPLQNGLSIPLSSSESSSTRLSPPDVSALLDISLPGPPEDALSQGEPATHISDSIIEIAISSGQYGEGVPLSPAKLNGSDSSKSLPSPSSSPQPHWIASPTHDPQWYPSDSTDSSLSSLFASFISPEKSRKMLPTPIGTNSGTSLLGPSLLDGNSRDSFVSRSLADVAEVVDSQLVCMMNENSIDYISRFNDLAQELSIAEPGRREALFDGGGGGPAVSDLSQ
UniProt P00167, whole entry, looked up: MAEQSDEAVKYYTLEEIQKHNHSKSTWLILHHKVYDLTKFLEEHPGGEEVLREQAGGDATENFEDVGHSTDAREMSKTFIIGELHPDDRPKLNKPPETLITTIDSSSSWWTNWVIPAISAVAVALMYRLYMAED
UniProt O95715: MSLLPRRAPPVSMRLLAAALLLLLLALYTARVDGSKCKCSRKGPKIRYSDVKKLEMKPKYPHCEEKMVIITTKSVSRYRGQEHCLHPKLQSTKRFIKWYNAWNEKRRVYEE
UniProt Q9GZU7: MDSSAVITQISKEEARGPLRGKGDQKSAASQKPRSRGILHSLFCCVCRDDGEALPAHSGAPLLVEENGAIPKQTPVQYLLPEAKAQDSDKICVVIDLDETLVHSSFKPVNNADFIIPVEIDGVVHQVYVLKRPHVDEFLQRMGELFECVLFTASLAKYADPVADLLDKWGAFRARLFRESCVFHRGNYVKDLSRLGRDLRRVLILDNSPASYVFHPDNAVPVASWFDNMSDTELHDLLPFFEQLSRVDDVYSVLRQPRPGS
UniProt P08311: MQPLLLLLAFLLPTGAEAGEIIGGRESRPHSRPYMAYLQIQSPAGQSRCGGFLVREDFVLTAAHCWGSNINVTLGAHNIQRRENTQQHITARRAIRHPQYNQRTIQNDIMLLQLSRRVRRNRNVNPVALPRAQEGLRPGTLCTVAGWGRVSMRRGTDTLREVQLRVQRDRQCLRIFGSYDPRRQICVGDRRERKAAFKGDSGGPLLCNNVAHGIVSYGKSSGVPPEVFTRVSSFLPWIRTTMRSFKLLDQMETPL
UniProt Q8NI51: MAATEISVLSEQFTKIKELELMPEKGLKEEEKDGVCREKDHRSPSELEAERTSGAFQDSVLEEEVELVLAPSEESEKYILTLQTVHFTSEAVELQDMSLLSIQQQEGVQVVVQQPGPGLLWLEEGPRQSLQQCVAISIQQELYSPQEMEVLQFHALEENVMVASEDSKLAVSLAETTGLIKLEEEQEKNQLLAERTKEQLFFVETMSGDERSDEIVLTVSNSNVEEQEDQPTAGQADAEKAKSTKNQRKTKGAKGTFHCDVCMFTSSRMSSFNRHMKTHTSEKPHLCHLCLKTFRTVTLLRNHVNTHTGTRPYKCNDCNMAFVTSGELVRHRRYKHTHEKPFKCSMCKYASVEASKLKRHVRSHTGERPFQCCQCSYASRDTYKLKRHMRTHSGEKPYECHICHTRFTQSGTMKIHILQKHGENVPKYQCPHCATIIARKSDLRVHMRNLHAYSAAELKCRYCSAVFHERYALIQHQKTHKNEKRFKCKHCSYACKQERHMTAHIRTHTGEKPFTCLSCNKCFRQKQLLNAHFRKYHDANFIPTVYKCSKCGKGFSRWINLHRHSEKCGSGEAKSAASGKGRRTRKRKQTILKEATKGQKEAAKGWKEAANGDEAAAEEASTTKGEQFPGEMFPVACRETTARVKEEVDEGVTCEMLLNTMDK
UniProt O60931: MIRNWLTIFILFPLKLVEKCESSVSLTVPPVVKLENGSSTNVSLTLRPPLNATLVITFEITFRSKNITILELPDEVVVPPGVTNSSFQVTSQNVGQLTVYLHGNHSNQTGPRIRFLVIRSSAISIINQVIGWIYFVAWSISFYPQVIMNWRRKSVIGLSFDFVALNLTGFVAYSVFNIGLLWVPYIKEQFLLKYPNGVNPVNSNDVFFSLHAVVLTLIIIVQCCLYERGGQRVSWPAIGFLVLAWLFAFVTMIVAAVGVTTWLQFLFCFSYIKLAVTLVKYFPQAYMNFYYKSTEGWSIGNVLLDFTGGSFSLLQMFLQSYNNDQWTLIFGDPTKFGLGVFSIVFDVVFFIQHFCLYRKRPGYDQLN
UniProt Q49AN0: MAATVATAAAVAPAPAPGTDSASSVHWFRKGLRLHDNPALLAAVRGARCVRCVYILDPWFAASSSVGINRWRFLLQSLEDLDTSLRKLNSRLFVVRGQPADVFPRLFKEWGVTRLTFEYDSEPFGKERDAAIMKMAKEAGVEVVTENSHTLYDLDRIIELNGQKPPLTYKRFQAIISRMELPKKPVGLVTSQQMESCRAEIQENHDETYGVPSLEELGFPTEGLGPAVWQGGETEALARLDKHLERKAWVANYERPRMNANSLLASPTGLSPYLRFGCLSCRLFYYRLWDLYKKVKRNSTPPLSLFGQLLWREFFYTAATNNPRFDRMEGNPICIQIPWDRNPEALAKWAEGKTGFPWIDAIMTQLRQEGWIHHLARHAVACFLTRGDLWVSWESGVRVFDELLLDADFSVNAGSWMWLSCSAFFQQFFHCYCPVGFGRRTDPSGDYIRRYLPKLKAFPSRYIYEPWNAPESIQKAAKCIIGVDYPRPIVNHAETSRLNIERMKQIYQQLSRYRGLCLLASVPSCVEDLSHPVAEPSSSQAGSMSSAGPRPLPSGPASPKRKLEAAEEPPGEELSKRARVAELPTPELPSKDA
UniProt Q16527: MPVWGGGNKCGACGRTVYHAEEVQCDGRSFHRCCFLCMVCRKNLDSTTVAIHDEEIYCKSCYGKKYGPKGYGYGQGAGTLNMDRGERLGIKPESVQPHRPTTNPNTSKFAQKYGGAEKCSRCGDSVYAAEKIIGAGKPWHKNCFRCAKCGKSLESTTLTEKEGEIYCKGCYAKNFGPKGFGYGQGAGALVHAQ
UniProt Q9UBG3: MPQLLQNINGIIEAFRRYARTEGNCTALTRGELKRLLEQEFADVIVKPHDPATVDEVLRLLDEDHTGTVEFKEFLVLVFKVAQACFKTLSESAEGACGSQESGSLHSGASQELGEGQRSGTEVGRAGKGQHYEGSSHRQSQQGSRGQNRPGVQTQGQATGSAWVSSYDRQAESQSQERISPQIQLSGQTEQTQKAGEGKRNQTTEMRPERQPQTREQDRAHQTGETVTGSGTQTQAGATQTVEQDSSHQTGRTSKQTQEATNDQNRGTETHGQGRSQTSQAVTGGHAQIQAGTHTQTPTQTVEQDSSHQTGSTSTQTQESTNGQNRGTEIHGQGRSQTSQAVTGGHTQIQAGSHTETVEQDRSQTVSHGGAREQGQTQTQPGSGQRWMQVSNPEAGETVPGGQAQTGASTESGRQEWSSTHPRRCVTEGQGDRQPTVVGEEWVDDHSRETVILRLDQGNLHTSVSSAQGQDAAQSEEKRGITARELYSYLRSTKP

dasatinib = compound: Cc1nc(Nc2ncc(C(=O)Nc3c(C)cccc3Cl)s2)cc(N2CCN(CCO)CC2)n1 [dasatinib]
Outline: as §1

[1] = compound: Cn1cc(-c2ccc3c(c2)CCN3C(=O)Cc2cccc(C(F)(F)F)c2)c2c(N)ncnc21
Outline: as §1

[2] = compound: C[C@H](C1=CC=C(C=C1)C(=O)NC2=C3C=CNC3=NC=C2)N
Outline: as §1

gandotinib = compound: Cc1cc(Nc2cc(CN3CCOCC3)c3nc(C)c(Cc4ccc(Cl)cc4F)n3n2)n[nH]1 [gandotinib]
Outline: as §1

[3] = compound: Cc1cccc(CC(=O)N2CCc3c2ccc(-c2cn(C)c4ncnc(N)c24)c3F)n1
Outline: as §1

nilotinib = compound: Cc1cn(-c2cc(NC(=O)c3ccc(C)c(Nc4nccc(-c5cccnc5)n4)c3)cc(C(F)(F)F)c2)cn1 [nilotinib]
Outline: as §1

[4] = compound: Cc1nc(Nc2n[nH]c3c2CN(C(=O)N[C@H](CN(C)C)c2ccccc2)C3(C)C)c2sccc2n1
Outline: as §1

[5] = compound: Cc1ncc(-c2ccnc(Nc3ccc(S(C)(=O)=O)cc3)n2)n1C(C)C
Outline: as §1

tipifarnib = compound: Cn1cncc1[C@@](N)(c1ccc(Cl)cc1)c1ccc2c(c1)c(-c1cccc(Cl)c1)cc(=O)n2C [tipifarnib]
Outline: as §1

lapatinib = compound: CS(=O)(=O)CCNCc1ccc(-c2ccc3ncnc(Nc4ccc(OCc5cccc(F)c5)c(Cl)c4)c3c2)o1 [lapatinib]
Outline: as §1

tozasertib = compound: Cc1cc(Nc2cc(N3CCN(C)CC3)nc(Sc3ccc(NC(=O)C4CC4)cc3)n2)n[nH]1 [tozasertib]
Outline: as §1

[6] = compound: NC(=O)c1cnc(N[C@@H]2CCCC[C@@H]2N)nc1Nc1cccc(-n2nccn2)c1
Outline: as §1

pictilisib = compound: CS(=O)(=O)N1CCN(Cc2cc3nc(-c4cccc5[nH]ncc45)nc(N4CCOCC4)c3s2)CC1 [pictilisib]
Outline: as §1

crizotinib = compound: C[C@@H](Oc1cc(-c2cnn(C3CCNCC3)c2)cnc1N)c1c(Cl)ccc(F)c1Cl [crizotinib]
Outline: as §1

doramapimod = compound: Cc1ccc(-n2nc(C(C)(C)C)cc2NC(=O)Nc2ccc(OCCN3CCOCC3)c3ccccc23)cc1 [doramapimod]
Outline: as §1

bafetinib = compound: Cc1ccc(NC(=O)c2ccc(CN3CC[C@H](N(C)C)C3)c(C(F)(F)F)c2)cc1Nc1nccc(-c2cncnc2)n1 [bafetinib]
Outline: as §1

quisinostat = compound: Cn1cc(CNCC2CCN(c3ncc(C(=O)NO)cn3)CC2)c2ccccc21 [quisinostat]
Outline: as §1

[7] = compound: NC(=O)Nc1cc(-c2cccc(F)c2)sc1C(=O)N[C@H]1CCCNC1
Outline: as §1

[8] = compound: NC1(c2ccc(-c3nc4ccn5c(=O)[nH]nc5c4cc3-c3ccccc3)cc2)CCC1
Outline: as §1

Measured: log2 fold change

CXXC5 (UniProt Q7LFL8)
inactive: duvelisib 0.188 | dasatinib -0.115 | [1] -0.156

CRY1 (UniProt Q16526)
inactive: [2] -0.098 | gandotinib 0.07 | [3] 0.033 | nilotinib 0.016 | [4] -0.037 | [5] 0.07 | tipifarnib 0.106

CTRB2 (UniProt Q6GPI1)
inactive: lapatinib -0.048 | [2] -0.402 | gandotinib 0.202 | tozasertib 0.124 | [3] 0.281 | nilotinib -0.028 | [4] 0.133 | [5] 0.026 | tipifarnib -0.09 | [6] -0.044

CSPG5 isoform 2 (UniProt O95196)
inactive: pictilisib 0.013 | crizotinib 0.012 | doramapimod -0.078 | bafetinib -0.118 | nilotinib -0.109 | [4] 0.173 | [5] -0.208 | quisinostat -0.012 | tipifarnib 0.249 | [7] 0.053 | [8] -0.111

CTNNBIP1 (UniProt Q9NSA3)
inactive: duvelisib 0.095 | dasatinib -0.008 | [1] 0.167 | [8] -0.052

CST1 (UniProt P01037)
inactive: crizotinib 0.533 | [2] 0.086 | gandotinib -0.299 | tozasertib 0.619 | doramapimod 0.082 | [3] 0.414 | nilotinib -0.146 | [4] 0.073 | [5] -0.03 | quisinostat -0.007 | tipifarnib -0.177 | [7] -0.046 | [8] 1.03

CTDNEP1 (UniProt O95476)
inactive: crizotinib 0.008 | duvelisib 0.058 | doramapimod -0.055 | dasatinib 0.045 | [1] 0.013 | quisinostat -0.069 | [7] -0.002

2 neighbouring records from above, quoted:
CTNNBIP1 (UniProt Q9NSA3)
inactive: duvelisib 0.095 | dasatinib -0.008 | [1] 0.167 | [8] -0.052

CST1 (UniProt P01037)
inactive: crizotinib 0.533 | [2] 0.086 | gandotinib -0.299 | tozasertib 0.619 | doramapimod 0.082 | [3] 0.414 | nilotinib -0.146 | [4] 0.073 | [5] -0.03 | quisinostat -0.007 | tipifarnib -0.177 | [7] -0.046 | [8] 1.03

Next part.

CSF1 (UniProt P09603)
inactive: [2] 0.016 | gandotinib 0.059 | [3] 0.033

CTBP1 (UniProt E7ESU7)
inactive: nilotinib -0.314 | [4] -0.096 | [5] 0.182 | tipifarnib 0.545

CRISP3 isoform 3 (UniProt P54108)
inactive: [2] -0.011 | duvelisib -0.632 | gandotinib -0.297 | [3] 0.243 | nilotinib -0.115 | [4] 0.093 | dasatinib -0.221 | [5] -0.041 | [1] 0.226 | tipifarnib -0.14 | [8] 0.889

CSNK1G3 isoform 4 (UniProt Q9Y6M4)
inactive: lapatinib -0.035 | [6] 0.083

CRAMP1 (UniProt Q96RY5)
inactive: duvelisib 0.049 | tozasertib -0.065 | dasatinib 0.025 | [1] -0.193

CYB5A (UniProt P00167)
inactive: pictilisib 0.048 | crizotinib 0.047 | [2] -0.083 | duvelisib 0.083 | gandotinib 0.107 | tozasertib 0.035 | doramapimod 0 | bafetinib -0.025 | [3] 0.14 | nilotinib 0.004 | [4] 0.031 | dasatinib -0.066 | [5] 0.066 | [1] 0.039 | quisinostat 0.041 | tipifarnib -0.025 | [7] -0.057 | [8] 0.052

CSNK2A1, A0A2R8Y4D6
inactive: lapatinib -0.132 | [6] 0.085

CXCL14 (UniProt O95715)
inactive: pictilisib -0.083 | tozasertib -0.021 | bafetinib -0.649

CYLD (UniProt Q9NQC7)
inactive: crizotinib -0.019 | doramapimod -0.083 | quisinostat -0.101 | [7] 0.056 | [8] -0.078

CTDSP1 (UniProt Q9GZU7)
inactive: crizotinib -0.091 | [2] 0.125 | duvelisib -0.051 | gandotinib -0.217 | doramapimod -0.065 | [3] -0.014 | dasatinib -0.086 | [1] -0.019 | quisinostat 0.03 | [7] 0.056

CYFIP1, A0A0G2JRV9
inactive: lapatinib -0.13 | nilotinib -0.105 | [4] -0.091 | [5] 0.002 | tipifarnib 0.106 | [6] -0.141

CTSG (UniProt P08311)
inactive: crizotinib 0.068 | [2] -0.546 | duvelisib -0.109 | gandotinib 0.26 | doramapimod -0.015 | [3] 0.207 | nilotinib -0.071 | [4] -0.129 | dasatinib -0.031 | [5] 0 | [1] 0.181 | quisinostat 0.112 | tipifarnib -0.007 | [7] 0.009 | [8] -0.13

CTCFL isoform 7 (UniProt Q8NI51)
inactive: pictilisib -0.01 | crizotinib -0.087 | tozasertib -0.173 | doramapimod -0.148 | bafetinib -0.015 | nilotinib -0.006 | [4] 0.006 | [5] -0.126 | quisinostat 0.044 | tipifarnib 0.226 | [7] -0.02

CTNS isoform 2 (UniProt O60931)
inactive: pictilisib -0.093 | crizotinib 0 | [2] -0.314 | duvelisib -0.141 | gandotinib 0.348 | tozasertib 0.154 | doramapimod 0.106 | bafetinib 0.01 | [3] 0.206 | dasatinib 0.122 | [1] -0.013 | quisinostat -0.154 | [7] 0.002

CRY2 (UniProt Q49AN0)
inactive: [2] -0.044 | gandotinib 0.183 | [3] 0.085 | nilotinib 0.067 | [4] -0.043 | [5] -0.035 | tipifarnib -0.056

CSRP2 (UniProt Q16527)
inactive: pictilisib -0.063 | crizotinib -0.157 | [2] -0.018 | gandotinib -0.068 | tozasertib 0.118 | doramapimod 0.051 | bafetinib 0.072 | [3] 0.052 | quisinostat -0.012 | [7] 0.068

CRNN (UniProt Q9UBG3)
inactive: nilotinib 0.059 | [4] 0.365 | [5] -0.199 | tipifarnib -0.449

Source: the supplement of paper PMC10849652
